These results got no clear call from the source, so the numbers are uncertain. How the calls were made is not given here.
Experiment: PubChem AID 488836
Conditions: C. albicans CaCi-2 (fluconazole-resistant clinical isolate) growth with fluconazole, Alamar Blue, 48 h; at 6 µM (top of the series)

Compound	activity change, negative = inhibition
O=C(c1ccc(Cl)cc1)N1CCN(c2ccccn2)CC1	inconclusive: -52.3%
O=C(C1CC1)N1CCN(c2ccnc3cc(Cl)ccc23)CC1	inconclusive: -42.8%
CNC(=O)Cn1nc(-c2ccccc2)c2ccccc21	inconclusive: -23.9%

Reference: PubChem BioAssay AID488836 (Broad Institute, 2010)
